According to patent US20230280353:
Construct, isoform or probe ends are uncertain for at least one entry.

By UniProt entry, the sequences of proteins in these tests, tags left out.
UniProt P03069, whole entry: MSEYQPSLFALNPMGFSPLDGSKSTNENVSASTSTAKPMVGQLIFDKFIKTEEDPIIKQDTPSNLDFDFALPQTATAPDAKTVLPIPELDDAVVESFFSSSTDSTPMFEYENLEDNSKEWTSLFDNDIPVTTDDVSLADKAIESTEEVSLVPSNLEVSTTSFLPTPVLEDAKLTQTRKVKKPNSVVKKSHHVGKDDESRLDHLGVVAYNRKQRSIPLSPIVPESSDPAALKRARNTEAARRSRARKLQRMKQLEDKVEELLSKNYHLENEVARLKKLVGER

Target: GCN4 (UniProt P03069)
Assay: binding assay
Settings: SPIDER proximity covalent capture (SAm-PupE, PafA7KR, ATP), 30 C, Flag western; complex band only with biotinylated DNA; purified recombinant protein; protein details: Flag and 6xHis tags, pET28a, E. coli BL21(DE3); label: 5'-biotin

“CAACCCATGAGTCATAC (double strand) [GCN4 target DNA]”: binds.
